Results are given in words; binding and its absence hold for the method and conditions named. Binding seen in cells or lysates may run through a third protein. A result given as binding can be weak or reduced; the word gives no strength. Values belong to the molecule of their own block, whether it stands above or below them.
Legend:
[1] = molecular target: T1, MKK7 (endogenous, rat primary mesencephalic neurons) (rat (endogenous in primary mesencephalic neurons)) (UniProt Q4KSH7); test: co-IP; endogenous proteins in lysates (buffer A) of primary rat mesencephalic neurons, untreated or treated with 200 μM MPP+ for 2 h, with control or CIB1 siRNA; immunoprecipitation with antibodies to ASK1 or to MKK7, immunoblot
T1 sequence: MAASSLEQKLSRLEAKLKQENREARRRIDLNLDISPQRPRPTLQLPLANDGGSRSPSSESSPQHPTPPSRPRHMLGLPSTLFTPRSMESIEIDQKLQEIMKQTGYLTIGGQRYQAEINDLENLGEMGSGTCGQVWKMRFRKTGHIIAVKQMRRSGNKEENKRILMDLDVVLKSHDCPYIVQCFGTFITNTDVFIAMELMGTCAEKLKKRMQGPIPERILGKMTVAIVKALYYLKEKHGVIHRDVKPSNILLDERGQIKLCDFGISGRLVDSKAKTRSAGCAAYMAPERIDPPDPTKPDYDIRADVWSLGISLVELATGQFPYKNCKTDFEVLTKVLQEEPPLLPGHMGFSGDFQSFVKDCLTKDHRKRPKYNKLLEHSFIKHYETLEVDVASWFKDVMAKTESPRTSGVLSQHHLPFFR

[2] = molecular target: ASK1 (endogenous, rat primary mesencephalic neurons) (rat (endogenous in primary mesencephalic neurons)); test: as above

binding [1]: binds
Molecule: ASK1 (endogenous, rat primary mesencephalic neurons) (enzyme)

binding [2]: binds
B1: CIB1 (endogenous, rat primary mesencephalic neurons) (protein, UniProt Q9R010 1-191)
chain: MGGSGSRLSKELLAEYQDLTFLTKQEILLAHRRFCELLPPEHRTVEESLHTRVSFEQILSLPELKANPFKERICMVFSTSPTRDSLSFEDFLDLLSVFSDTATPDIKSHYAFRIFDFDDDGTLDREDLSRLVNCLTGEGEDTRLSASEMKQLIDNILEESDIDRDGTINLSEFQHVISRSPDFASSFKIVL
